Structures can show the parent of a compound that is named as a salt. ± gives the standard deviation of the averaged measurements. This is one part of the list. The data scatter; read single values as rough.
Tests used:
hAMSC donor 1 [1] = assay: Hoechst total cell count ratio vs vehicle control; higher = more cells (less toxicity)
hAMSC donor 2 [2] = assay: as above
hAMSC donor 1 [3] = assay: transgenic luciferase activity (RLU/mg protein) fold change vs vehicle control (ratio); higher = more transgene expression
hAMSC donor 2 [4] = assay: as above
hAMSC donor 1 [5] = assay: transfection efficiency (EGFP+ cells / Hoechst count) fold change vs vehicle control (ratio); hAMSC are human adipose-derived mesenchymal stem cells given an EGFP-luciferase plasmid by lipofection; higher = enhanced transfection
hAMSC donor 2 [6] = assay: as above
[7] = priming compound concentration 0.2 µM
[8] = priming compound concentration 1.7 µM
[9] = priming compound concentration 13 µM

SMILES | Hoechst total cell count ratio (hAMSC donor 1 [1]; [7]) | Hoechst total cell count ratio (hAMSC donor 1 [1]; [8]) | Hoechst total cell count ratio (hAMSC donor 1 [1]; [9]) | Hoechst total cell count ratio (hAMSC donor 2 [2]; [7]) | Hoechst total cell count ratio (hAMSC donor 2 [2]; [8]) | Hoechst total cell count ratio (hAMSC donor 2 [2]; [9]) | transgenic luciferase activity (hAMSC donor 1 [3]; [8]) | transgenic luciferase activity (hAMSC donor 2 [4]; [8]) | transgenic luciferase activity (hAMSC donor 2 [4]; [9]) | transfection efficiency (hAMSC donor 1 [5]; [7]) | transfection efficiency (hAMSC donor 1 [5]; [8]) | transfection efficiency (hAMSC donor 1 [5]; [9]) | transfection efficiency (hAMSC donor 2 [6]; [7]) | transfection efficiency (hAMSC donor 2 [6]; [8]) | transfection efficiency (hAMSC donor 2 [6]; [9]) | transgenic luciferase activity (hAMSC donor 1 [3]; [7]) | transgenic luciferase activity (hAMSC donor 2 [4]; [7])
C[C@@H]1CN(CCCn2c3ccccc3c3ccccc32)C[C@H](C)N1 [Rimcazole dihydrochloride] | 1.23 ± 0.22 | 1.19 ± 0.23 | 1.23 ± 0.18 | 1.23 ± 0.098 | 1.69 ± 0.075 | 1.07 ± 0.073 | 1.34 ± 0.17 | 0.445 ± 0.12 | 0.36 ± 0.015 | 0.772 ± 0.12 | 1.05 ± 0.29 | 1.33 ± 0.31 | 0.955 ± 0.028 | 0.894 ± 0.065 | 0.861 ± 0.072 | – | –
O=C1c2c(O)cc(O)cc2O[C@H](c2ccc(O)c(O)c2)[C@H]1O (racemic) [Taxifolin-(+/-)] | 1.06 ± 0.14 | 1.08 ± 0.19 | 1.11 ± 0.17 | 0.975 ± 0.19 | 1.06 ± 0.11 | 0.838 ± 0.18 | – | 0.597 ± 0.25 | – | 0.835 ± 0.4 | 1.09 ± 0.28 | 0.949 ± 0.41 | 1.05 ± 0.041 | 1.15 ± 0.26 | 0.854 ± 0.24 | 1.8 ± 0.72 | –
O=c1[nH]cc(F)c(=O)[nH]1 [5-Fluorouracil] | 1.16 ± 0.15 | 1.35 ± 0.075 | 1.42 ± 0.069 | 0.899 ± 0.11 | 1.12 ± 0.21 | 0.805 ± 0.09 | – | – | – | 0.605 ± 0.1 | 0.674 ± 0.21 | 1.25 ± 0.64 | 1.29 ± 0.34 | 0.933 ± 0.079 | 1.62 ± 0.14 | 0.455 ± 1.9 | 0.778 ± 0.1
CN(C)[C@@H]1C(O)=C(C(N)=O)C(=O)[C@@]2(O)C(O)=C3C(=O)c4c(O)ccc(Cl)c4[C@@H](O)[C@H]3C[C@@H]12 [Demeclocycline] | 1.36 ± 0.17 | 1.42 ± 0.05 | 1.45 ± 0.089 | 1.21 ± 0.17 | 1.34 ± 0.05 | 1.25 ± 0.25 | – | – | – | 0.761 ± 0.14 | 0.974 ± 0.48 | 0.97 ± 0.13 | 1.14 ± 0.42 | 0.742 ± 0.035 | 0.842 ± 0.13 | 1.62 ± 0.86 | 1.13 ± 0.1
Nc1ncnc2c1ncn2[C@@H]1O[C@H](CO)C[C@@H]1O [3'-Deoxydenosine] | 0.961 ± 0.057 | 0.896 ± 0.049 | 0.964 ± 0.081 | 0.95 ± 0.06 | 1.51 ± 0.17 | 1.07 ± 0.26 | – | 0.831 ± 0.12 | – | 0.848 ± 0.11 | 1.05 ± 0.13 | 1.41 ± 0.62 | 1.23 ± 0.41 | 1.13 ± 0.35 | 0.847 ± 0.11 | 1.68 ± 1 | –
O=C(O)C[C@H](O)C[C@H](O)/C=C/c1c(C2CC2)nc2ccccc2c1-c1ccc(F)cc1 [Itavastatin calcium] | 0.969 ± 0.33 | 1.01 ± 0.039 | 0.863 ± 0.2 | 1.32 ± 0.13 | 1.11 ± 0.094 | 0.756 ± 0.067 | 0.777 ± 0.43 | – | 1.13 ± 0.099 | 1.41 ± 0.31 | 1.32 ± 0.36 | 1.84 ± 0.41 | 1.07 ± 0.29 | 1.16 ± 0.24 | 2.64 ± 0.34 | – | –
CCn1cc(C(=O)O)c(=O)c2cc(F)c(N3CCN(C)CC3)cc21 [Pefloxacin mesylate] | 1.04 ± 0.12 | 1.03 ± 0.11 | 1.23 ± 0.19 | 1.16 ± 0.14 | 1.16 ± 0.18 | 0.94 ± 0.048 | 1.23 ± 0.58 | – | 0.773 ± 0.17 | 1.38 ± 0.12 | 1.03 ± 0.32 | 1.15 ± 0.46 | 1.15 ± 0.087 | 1.15 ± 0.085 | 1.55 ± 0.28 | – | –
NCCc1ccc(O)c(O)c1 [Dopamine hydrochloride] | 1.08 ± 0.035 | 1.13 ± 0.085 | 1.19 ± 0.12 | 0.943 ± 0.25 | 0.944 ± 0.11 | 1.09 ± 0.061 | – | – | – | 0.43 ± 0.14 | 1.5 ± 1.2 | 1.04 ± 0.24 | 1.35 ± 0.3 | 1.02 ± 0.039 | 0.809 ± 0.11 | 1.77 ± 0.53 | 0.774 ± 0.43

From the supplement of paper PMC7238544
